Measured values: article PMC3976330
These are yes or no findings as the source states them, for the method shown. In cells and extracts the contact can be indirect.

Sequences of proteins named here, by UniProt entry; tags and fusion partners are left off. Residues count along the entry.
UniProt P35637, residues 1-359: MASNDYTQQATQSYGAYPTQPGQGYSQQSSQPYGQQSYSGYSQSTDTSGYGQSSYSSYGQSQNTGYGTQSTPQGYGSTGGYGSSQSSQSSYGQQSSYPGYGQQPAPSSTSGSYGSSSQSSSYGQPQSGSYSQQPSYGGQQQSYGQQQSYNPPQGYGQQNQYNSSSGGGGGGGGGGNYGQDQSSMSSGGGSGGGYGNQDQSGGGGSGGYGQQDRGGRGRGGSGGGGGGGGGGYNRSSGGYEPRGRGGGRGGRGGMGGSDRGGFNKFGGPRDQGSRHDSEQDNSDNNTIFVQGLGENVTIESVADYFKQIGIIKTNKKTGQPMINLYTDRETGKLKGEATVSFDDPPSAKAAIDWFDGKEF

B1: endogenous p54nrb/NONO of SH-SY5Y cells (protein, UniProt Q15233 1-471)
chain: MQSNKTFNLEKQNHTPRKHHQHHHQQQHHQQQQQQPPPPPIPANGQQASSQNEGLTIDLKNFRKPGEKTFTQRSRLFVGNLPPDITEEEMRKLFEKYGKAGEVFIHKDKGFGFIRLETRTLAEIAKVELDNMPLRGKQLRVRFACHSASLTVRNLPQYVSNELLEEAFSVFGQVERAVVIVDDRGRPSGKGIVEFSGKPAARKALDRCSEGSFLLTTFPRPVTVEPMDQLDDEEGLPEKLVIKNQQFHKEREQPPRFAQPGSFEYEYAMRWKALIEMEKQQQDQVDRNIKEAREKLEMEMEAARHEHQVMLMRQDLMRRQEELRRMEELHNQEVQKRKQLELRQEEERRRREEEMRRQQEEMMRRQQEGFKGTFPDAREQEIRMGQMAMGGAMGINNRGAMPPAPVPAGTPAPPGPATMMPDGTLGLTPPTTERFGQAATMEGIGAIGGTPPAFNRAAPGAEFAPNKRRRY
B2: endogenous p54nrb/NONO of SH-SY5Y cells, Q15233 1-471 (protein)
chain: B1 chain

Experiments:
[1] = biological target: GFP-tagged N-terminal fragment of FUS (aminoacids 1–359) (human) (UniProt P35637); test: co-IP; GFP-tagged protein precipitated from lysates of SH-SY5Y cells 24 h after transfection (untreated or treated with actinomycin D) with anti-GFP antibody (clone 3A9) and ProteinA/G sepharose beads or GFP-Trap agarose beads, 2 h at 4°C, PBS/1% Triton X-100; western blot for p54nrb/NONO
[2] = biological target: GFP-tagged full-length TDP-43 (human), Q13148; test: as above; conditions: remark: other sources report otherwise

Row | Binder | binding [1] | binding [2]
1 | B1 | no binding | –
2 | B2 | – | no binding
